From the supplement of paper PMC6411743 come the findings set out here.

Amino acid sequences for entries named in this document (tags omitted). A change or cut given only in a name is not applied to a line headed by its entry.
UniProt Q6P9B6: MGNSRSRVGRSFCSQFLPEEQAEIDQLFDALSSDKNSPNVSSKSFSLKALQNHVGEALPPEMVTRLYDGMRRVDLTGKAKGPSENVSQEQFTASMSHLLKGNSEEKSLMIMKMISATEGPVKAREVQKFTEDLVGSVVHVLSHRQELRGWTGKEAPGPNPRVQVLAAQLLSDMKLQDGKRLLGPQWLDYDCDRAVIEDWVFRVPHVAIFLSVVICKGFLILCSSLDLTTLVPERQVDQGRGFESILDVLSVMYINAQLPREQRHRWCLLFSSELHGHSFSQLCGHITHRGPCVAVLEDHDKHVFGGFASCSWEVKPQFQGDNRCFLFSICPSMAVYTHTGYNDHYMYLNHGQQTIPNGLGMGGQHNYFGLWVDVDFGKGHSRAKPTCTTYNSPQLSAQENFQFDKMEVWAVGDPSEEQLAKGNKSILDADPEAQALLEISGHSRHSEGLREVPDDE
UniProt Q6WKZ4: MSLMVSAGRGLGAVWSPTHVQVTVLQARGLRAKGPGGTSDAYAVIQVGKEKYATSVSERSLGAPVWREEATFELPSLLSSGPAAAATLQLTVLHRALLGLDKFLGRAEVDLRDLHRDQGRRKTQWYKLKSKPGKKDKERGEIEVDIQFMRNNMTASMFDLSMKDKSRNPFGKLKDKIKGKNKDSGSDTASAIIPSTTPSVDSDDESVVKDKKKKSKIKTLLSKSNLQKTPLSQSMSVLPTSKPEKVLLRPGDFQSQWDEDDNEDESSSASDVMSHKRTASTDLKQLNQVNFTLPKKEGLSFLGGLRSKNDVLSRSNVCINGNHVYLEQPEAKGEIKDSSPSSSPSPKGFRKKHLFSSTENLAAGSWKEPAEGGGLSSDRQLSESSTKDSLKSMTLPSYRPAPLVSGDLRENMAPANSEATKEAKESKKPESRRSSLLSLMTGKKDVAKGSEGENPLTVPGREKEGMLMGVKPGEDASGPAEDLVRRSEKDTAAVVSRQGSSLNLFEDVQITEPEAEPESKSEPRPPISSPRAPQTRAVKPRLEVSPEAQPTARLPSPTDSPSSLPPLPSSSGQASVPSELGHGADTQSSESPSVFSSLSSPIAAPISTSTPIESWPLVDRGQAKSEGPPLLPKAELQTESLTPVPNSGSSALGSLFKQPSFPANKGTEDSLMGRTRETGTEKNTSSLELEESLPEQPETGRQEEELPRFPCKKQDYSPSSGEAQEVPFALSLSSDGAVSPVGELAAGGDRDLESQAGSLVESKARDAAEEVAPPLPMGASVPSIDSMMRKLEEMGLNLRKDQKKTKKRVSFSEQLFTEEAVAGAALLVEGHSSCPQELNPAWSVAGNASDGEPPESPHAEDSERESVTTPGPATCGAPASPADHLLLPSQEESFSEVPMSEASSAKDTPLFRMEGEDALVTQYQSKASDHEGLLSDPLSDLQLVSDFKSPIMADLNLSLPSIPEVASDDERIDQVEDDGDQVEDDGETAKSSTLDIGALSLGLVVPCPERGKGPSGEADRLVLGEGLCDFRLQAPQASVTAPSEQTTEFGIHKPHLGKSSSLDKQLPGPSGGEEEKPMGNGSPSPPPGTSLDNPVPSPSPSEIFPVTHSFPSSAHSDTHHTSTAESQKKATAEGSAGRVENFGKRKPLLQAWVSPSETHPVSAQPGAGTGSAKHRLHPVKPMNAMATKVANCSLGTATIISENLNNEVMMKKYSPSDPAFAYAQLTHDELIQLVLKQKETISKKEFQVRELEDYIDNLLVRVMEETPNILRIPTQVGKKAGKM
UniProt Q6P4Q7: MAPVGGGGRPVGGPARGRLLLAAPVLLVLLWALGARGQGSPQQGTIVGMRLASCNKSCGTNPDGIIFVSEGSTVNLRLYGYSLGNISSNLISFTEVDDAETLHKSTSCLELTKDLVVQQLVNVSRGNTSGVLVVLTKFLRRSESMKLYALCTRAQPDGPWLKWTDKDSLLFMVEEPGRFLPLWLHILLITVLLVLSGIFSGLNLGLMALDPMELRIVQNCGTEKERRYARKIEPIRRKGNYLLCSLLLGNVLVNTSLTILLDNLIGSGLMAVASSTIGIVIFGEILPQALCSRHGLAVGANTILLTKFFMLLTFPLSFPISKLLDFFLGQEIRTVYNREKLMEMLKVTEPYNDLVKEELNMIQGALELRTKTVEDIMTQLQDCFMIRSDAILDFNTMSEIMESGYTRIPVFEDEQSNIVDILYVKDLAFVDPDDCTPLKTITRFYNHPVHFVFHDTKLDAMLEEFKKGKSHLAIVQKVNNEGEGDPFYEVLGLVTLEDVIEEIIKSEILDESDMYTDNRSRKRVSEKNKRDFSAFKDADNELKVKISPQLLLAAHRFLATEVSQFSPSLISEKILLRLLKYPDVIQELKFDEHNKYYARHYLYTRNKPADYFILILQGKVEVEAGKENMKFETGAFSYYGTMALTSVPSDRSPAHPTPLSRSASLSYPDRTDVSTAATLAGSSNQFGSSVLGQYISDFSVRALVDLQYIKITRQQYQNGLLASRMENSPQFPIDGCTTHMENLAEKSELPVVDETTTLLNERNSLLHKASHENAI
UniProt Q7RTV0, whole entry, looked up: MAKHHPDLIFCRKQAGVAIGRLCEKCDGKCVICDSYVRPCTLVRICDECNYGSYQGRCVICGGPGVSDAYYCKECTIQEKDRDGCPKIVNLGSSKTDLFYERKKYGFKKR
UniProt Q5VUM1: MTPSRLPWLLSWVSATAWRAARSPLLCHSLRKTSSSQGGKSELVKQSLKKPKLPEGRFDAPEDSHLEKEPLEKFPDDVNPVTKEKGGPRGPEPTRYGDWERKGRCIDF
UniProt O14880: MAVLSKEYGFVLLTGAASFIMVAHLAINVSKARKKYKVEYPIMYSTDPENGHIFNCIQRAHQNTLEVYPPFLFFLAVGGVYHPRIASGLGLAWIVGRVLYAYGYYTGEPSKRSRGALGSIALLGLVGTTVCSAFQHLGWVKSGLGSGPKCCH
UniProt Q71RC2, whole entry: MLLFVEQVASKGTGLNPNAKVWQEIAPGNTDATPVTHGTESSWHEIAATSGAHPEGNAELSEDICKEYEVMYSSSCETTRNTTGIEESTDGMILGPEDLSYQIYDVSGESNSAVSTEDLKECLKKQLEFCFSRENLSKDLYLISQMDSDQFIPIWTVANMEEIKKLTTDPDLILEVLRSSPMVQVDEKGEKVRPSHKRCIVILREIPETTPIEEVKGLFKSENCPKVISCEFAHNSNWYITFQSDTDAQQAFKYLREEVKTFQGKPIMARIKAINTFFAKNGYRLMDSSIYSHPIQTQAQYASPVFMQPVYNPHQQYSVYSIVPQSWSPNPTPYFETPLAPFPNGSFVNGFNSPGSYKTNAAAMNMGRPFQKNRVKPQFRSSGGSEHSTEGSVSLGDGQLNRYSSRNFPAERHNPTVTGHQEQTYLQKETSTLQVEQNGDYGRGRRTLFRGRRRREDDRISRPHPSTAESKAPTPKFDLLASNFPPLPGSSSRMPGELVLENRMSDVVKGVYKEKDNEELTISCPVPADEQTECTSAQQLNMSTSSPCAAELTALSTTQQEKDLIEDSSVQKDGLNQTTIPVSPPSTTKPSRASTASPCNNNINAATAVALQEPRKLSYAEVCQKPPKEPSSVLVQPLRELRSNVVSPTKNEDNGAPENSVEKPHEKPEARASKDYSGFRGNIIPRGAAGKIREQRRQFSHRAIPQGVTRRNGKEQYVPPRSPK
UniProt Q6FI81: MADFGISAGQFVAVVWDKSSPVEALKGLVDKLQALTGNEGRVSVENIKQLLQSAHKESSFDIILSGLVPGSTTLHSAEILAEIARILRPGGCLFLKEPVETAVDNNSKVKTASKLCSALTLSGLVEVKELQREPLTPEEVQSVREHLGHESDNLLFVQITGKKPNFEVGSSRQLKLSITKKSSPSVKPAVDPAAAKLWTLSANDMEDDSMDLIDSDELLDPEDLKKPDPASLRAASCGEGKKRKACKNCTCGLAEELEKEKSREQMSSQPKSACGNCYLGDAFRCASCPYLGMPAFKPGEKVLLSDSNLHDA
UniProt Q6P4F7: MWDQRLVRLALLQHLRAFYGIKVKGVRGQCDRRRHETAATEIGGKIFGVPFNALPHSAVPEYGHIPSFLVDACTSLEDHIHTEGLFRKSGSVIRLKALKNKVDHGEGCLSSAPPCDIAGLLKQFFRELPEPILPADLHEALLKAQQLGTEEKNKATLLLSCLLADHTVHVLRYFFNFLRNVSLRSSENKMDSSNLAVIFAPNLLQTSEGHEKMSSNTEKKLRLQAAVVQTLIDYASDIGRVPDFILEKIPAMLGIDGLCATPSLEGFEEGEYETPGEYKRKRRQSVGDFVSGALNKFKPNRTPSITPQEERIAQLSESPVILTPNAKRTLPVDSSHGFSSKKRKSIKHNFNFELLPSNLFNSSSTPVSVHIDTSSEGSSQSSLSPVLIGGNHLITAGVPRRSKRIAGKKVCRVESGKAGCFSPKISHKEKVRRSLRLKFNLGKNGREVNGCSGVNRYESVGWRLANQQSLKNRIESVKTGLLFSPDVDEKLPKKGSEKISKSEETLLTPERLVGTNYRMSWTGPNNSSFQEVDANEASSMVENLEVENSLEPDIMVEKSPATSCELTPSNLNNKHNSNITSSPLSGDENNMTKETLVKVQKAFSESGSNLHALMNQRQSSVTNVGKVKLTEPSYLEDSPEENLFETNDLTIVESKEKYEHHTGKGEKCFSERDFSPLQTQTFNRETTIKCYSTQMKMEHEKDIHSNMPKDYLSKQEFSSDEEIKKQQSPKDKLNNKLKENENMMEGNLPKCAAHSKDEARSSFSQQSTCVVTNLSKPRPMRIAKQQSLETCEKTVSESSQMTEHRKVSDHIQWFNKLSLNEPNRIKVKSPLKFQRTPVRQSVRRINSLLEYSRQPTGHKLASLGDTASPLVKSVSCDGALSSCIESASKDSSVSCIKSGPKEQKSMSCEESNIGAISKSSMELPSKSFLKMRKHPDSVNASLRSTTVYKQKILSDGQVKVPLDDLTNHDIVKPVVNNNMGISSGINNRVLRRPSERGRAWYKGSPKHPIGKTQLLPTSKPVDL
UniProt Q6PCB7: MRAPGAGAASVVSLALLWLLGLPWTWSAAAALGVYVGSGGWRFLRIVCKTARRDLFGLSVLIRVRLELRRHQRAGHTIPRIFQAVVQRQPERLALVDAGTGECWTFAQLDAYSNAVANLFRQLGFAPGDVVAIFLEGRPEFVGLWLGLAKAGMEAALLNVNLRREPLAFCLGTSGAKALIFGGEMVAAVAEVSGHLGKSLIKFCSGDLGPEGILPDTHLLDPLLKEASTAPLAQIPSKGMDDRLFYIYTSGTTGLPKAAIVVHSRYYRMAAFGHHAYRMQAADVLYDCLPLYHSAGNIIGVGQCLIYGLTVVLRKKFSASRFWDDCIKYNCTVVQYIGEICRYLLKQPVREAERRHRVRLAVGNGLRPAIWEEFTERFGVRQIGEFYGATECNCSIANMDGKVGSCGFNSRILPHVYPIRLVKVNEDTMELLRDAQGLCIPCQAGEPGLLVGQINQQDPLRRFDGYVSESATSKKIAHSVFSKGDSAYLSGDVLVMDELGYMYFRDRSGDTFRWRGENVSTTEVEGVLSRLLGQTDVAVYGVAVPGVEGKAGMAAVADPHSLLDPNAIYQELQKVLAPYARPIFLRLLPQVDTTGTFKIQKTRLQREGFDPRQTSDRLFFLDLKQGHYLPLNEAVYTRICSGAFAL
UniProt Q7KZF4: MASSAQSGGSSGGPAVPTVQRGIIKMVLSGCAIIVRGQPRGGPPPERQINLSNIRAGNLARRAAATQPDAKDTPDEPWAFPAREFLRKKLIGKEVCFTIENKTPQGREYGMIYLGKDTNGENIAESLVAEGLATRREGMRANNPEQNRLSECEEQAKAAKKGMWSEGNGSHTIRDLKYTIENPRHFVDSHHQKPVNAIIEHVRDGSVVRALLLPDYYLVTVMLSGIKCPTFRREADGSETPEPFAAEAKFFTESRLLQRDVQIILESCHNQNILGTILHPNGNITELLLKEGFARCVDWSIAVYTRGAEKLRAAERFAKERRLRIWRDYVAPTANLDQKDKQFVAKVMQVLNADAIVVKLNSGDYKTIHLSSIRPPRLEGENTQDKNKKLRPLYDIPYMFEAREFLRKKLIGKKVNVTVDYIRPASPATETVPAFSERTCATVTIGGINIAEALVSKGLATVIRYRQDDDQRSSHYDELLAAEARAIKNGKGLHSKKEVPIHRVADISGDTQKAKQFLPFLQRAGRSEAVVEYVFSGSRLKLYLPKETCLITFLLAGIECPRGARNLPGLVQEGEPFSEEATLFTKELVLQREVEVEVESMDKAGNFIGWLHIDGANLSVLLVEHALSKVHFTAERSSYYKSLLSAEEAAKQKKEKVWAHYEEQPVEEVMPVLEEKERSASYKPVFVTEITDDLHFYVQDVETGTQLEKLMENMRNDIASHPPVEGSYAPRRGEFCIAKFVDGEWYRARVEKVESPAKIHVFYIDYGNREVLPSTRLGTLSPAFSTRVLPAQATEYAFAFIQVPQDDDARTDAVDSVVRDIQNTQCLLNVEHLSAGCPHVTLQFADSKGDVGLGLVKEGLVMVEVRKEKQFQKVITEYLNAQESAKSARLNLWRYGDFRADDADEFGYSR

± gives the standard deviation of the averaged measurements. The list shows a part of the results, in another mix than the full data.

Compound in the first assay: Nc1ncnc2c1ncn2[C@@H]1O[C@H](COP(=O)(O)OP(=O)(O)NP(=O)(O)O)[C@@H](O)[C@H]1O [adenylyl imidodiphosphate]
In words: NP40-soluble protein abundance relative to vehicle (solubility fold change) (ratio); higher = more soluble protein in presence of AMP-PNP. Conditions: concentration: 1mM. Summed up:
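Data come from three independent experiments in which Dounce-homogenised Jurkat crude lysate was treated at eight concentrations from 0.1 to 10 mM. Treatment ran 10 min at room temperature and then 3 min at 37 °C, after which 0.8% NP40 and benzonase were added for 60 min at 4 °C before ultracentrifugation. The supernatant underwent TMT labelling and LC-MS/MS, and vsn-normalised intensities were expressed as fold change against the detergent-processed vehicle in each replicate.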
In the case of UniProt Q6P9B6, the NP40-soluble protein abundance was determined as 1.03 ± 0.064.

On to RAB11FIP1 (UniProt Q6WKZ4), for which the NP40-soluble protein abundance was 1.02 ± 0.037.

In the case of UniProt Q709C8 and related entries, the NP40-soluble protein abundance amounted to 0.955 ± 0.016.

Consider LARP1 (UniProt Q6PKG0), for which the NP40-soluble protein abundance turned out to be 1.02 ± 0.069.

UniProt Q68EM7-2|Q68EM7-3|Q68EM7: the NP40-soluble protein abundance was found to be 0.97 ± 0.032.

As to UniProt Q7L4I2 and related entries, the NP40-soluble protein abundance was 1 ± 0.031.

On to CNNM4 (UniProt Q6P4Q7), for which the NP40-soluble protein abundance is 0.967 ± 0.012.

As to TAF3 (UniProt Q5VWG9), the NP40-soluble protein abundance is 1.02 ± 0.055.

Regarding TTC27 (UniProt Q6P3X3), the NP40-soluble protein abundance was 1.01 ± 0.035.

Consider UniProt Q7RTV0, for which the NP40-soluble protein abundance was 1.06 ± 0.071.

For the target UniProt Q7KYR7 and related entries, the NP40-soluble protein abundance stood at 0.978 ± 0.025.

As for USP34 (UniProt Q70CQ2), the NP40-soluble protein abundance came to 0.958 ± 0.032.

Take NAIF1 (UniProt Q69YI7): the NP40-soluble protein abundance worked out at 1.01 ± 0.012.

On to SDHAF4 (UniProt Q5VUM1), for which the NP40-soluble protein abundance was determined as 0.9921 ± 0.0038.

For “Q5VV87 and related entries (UniProt O14880)”, the NP40-soluble protein abundance amounted to 0.956 ± 0.065.

As for INTS5 (UniProt Q6P9B9), the NP40-soluble protein abundance is 0.989 ± 0.021.

Consider MRPL14 (UniProt Q6P1L8), for which the NP40-soluble protein abundance was 0.952 ± 0.043.

For the target UniProt Q5XUX1 and related entries, the NP40-soluble protein abundance stood at 0.986 ± 0.017.

In the case of UniProt Q71RC2 and related entries, the NP40-soluble protein abundance amounted to 1.03 ± 0.034.

UniProt Q6FI81 and related entries: the NP40-soluble protein abundance was 1 ± 0.045.

For the target UniProt Q7Z434 and related entries, the NP40-soluble protein abundance was 1 ± 0.038.

For HS2ST1 (UniProt Q7LGA3), the NP40-soluble protein abundance was 1.02 ± 0.028.

Regarding UniProt Q6ICG6 and related entries, the NP40-soluble protein abundance was found to be 0.96 ± 0.044.

As to ZCCHC8 (UniProt Q6NZY4), the NP40-soluble protein abundance was 1.03 ± 0.056.

With UniProt Q6DHV7 and related entries, the NP40-soluble protein abundance was 0.9866 ± 0.0096.

For the target UniProt Q5VT52 and related entries, the NP40-soluble protein abundance was 1.02 ± 0.022.

UniProt Q7Z2W9 and related entries: the NP40-soluble protein abundance was 1.01 ± 0.055.

EDC4 (UniProt Q6P2E9): the NP40-soluble protein abundance stood at 0.963 ± 0.03.

On to ARHGAP11A (UniProt Q6P4F7), for which the NP40-soluble protein abundance is 1.07 ± 0.034.

For UniProt Q6PCB7 and related entries, the NP40-soluble protein abundance amounted to 1.03 ± 0.034.

As for PHLDB3 (UniProt Q6NSJ2), the NP40-soluble protein abundance was determined as 1.03 ± 0.03.

In the case of TRIM65 (UniProt Q6PJ69), the NP40-soluble protein abundance amounted to 1.02 ± 0.029.

As to UniProt Q5VWN6, the NP40-soluble protein abundance came out at 1.013 ± 0.01.

Consider FASTKD5 (UniProt Q7L8L6), for which the NP40-soluble protein abundance is 0.979 ± 0.032.

UniProt Q63HQ0: the NP40-soluble protein abundance came out at 0.981 ± 0.013.

On to UniProt Q6P1N0 and related entries, for which the NP40-soluble protein abundance turned out to be 0.987 ± 0.014.

UniProt Q6NUQ4 and related entries: the NP40-soluble protein abundance was found to be 1.02 ± 0.029.

In the case of UniProt Q6R327 and related entries, the NP40-soluble protein abundance is 1.01 ± 0.018.

As for SND1 (UniProt Q7KZF4), the NP40-soluble protein abundance amounted to 1.03 ± 0.029.

On to OGFOD2 (UniProt Q6N063), for which the NP40-soluble protein abundance was 0.975 ± 0.076.

Still in this assay, the particulars now being: concentration: 2mM.
UniProt Q6P9B6: the NP40-soluble protein abundance was 1.03 ± 0.094.

With RAB11FIP1 (UniProt Q6WKZ4), the NP40-soluble protein abundance amounted to 1.06 ± 0.053.

Turning to UniProt Q709C8 and related entries, the NP40-soluble protein abundance was determined as 0.907 ± 0.065.

As to LARP1 (UniProt Q6PKG0), the NP40-soluble protein abundance amounted to 1.06 ± 0.034.

For UniProt Q68EM7-2|Q68EM7-3|Q68EM7, the NP40-soluble protein abundance worked out at 1.01 ± 0.061.

Regarding UniProt Q7L4I2 and related entries, the NP40-soluble protein abundance stood at 1.04 ± 0.11.

As for CNNM4 (UniProt Q6P4Q7), the NP40-soluble protein abundance was 1 ± 0.017.

Regarding TAF3 (UniProt Q5VWG9), the NP40-soluble protein abundance came to 1.05 ± 0.056.

For the target TTC27 (UniProt Q6P3X3), the NP40-soluble protein abundance was determined as 1 ± 0.029.

UniProt Q7RTV0: the NP40-soluble protein abundance is 1.1 ± 0.081.

In the case of UniProt Q7KYR7 and related entries, the NP40-soluble protein abundance stood at 0.972 ± 0.015.

In the case of USP34 (UniProt Q70CQ2), the NP40-soluble protein abundance is 0.925 ± 0.044.

Regarding NAIF1 (UniProt Q69YI7), the NP40-soluble protein abundance was found to be 1.04 ± 0.071.

Regarding SDHAF4 (UniProt Q5VUM1), the NP40-soluble protein abundance was 1.03 ± 0.035.

In the case of “Q5VV87 and related entries (UniProt O14880)”, the NP40-soluble protein abundance is 0.937 ± 0.051.

Turning to INTS5 (UniProt Q6P9B9), the NP40-soluble protein abundance stood at 0.971 ± 0.024.

Consider MRPL14 (UniProt Q6P1L8), for which the NP40-soluble protein abundance stood at 0.988 ± 0.043.

UniProt Q5XUX1 and related entries: the NP40-soluble protein abundance was found to be 0.96 ± 0.042.

On to UniProt Q71RC2 and related entries, for which the NP40-soluble protein abundance was determined as 1.04 ± 0.015.

Consider UniProt Q6FI81 and related entries, for which the NP40-soluble protein abundance was 1.05 ± 0.063.

With UniProt Q7Z434 and related entries, the NP40-soluble protein abundance stood at 1.02 ± 0.049.

As for HS2ST1 (UniProt Q7LGA3), the NP40-soluble protein abundance was 1.04 ± 0.058.

In the case of UniProt Q6ICG6 and related entries, the NP40-soluble protein abundance stood at 0.962 ± 0.017.

In the case of ZCCHC8 (UniProt Q6NZY4), the NP40-soluble protein abundance turned out to be 1.09 ± 0.035.

As to UniProt Q6DHV7 and related entries, the NP40-soluble protein abundance stood at 0.9803 ± 0.0059.

UniProt Q5VT52 and related entries: the NP40-soluble protein abundance turned out to be 1.08 ± 0.069.

On to UniProt Q7Z2W9 and related entries, for which the NP40-soluble protein abundance is 0.976 ± 0.01.

For EDC4 (UniProt Q6P2E9), the NP40-soluble protein abundance turned out to be 0.985 ± 0.029.

Regarding ARHGAP11A (UniProt Q6P4F7), the NP40-soluble protein abundance amounted to 0.978 ± 0.011.

As for UniProt Q6PCB7 and related entries, the NP40-soluble protein abundance is 1.01 ± 0.031.

Turning to PHLDB3 (UniProt Q6NSJ2), the NP40-soluble protein abundance worked out at 1.03 ± 0.035.

With TRIM65 (UniProt Q6PJ69), the NP40-soluble protein abundance amounted to 0.952 ± 0.052.

With UniProt Q5VWN6, the NP40-soluble protein abundance is 1.05 ± 0.041.

For the target FASTKD5 (UniProt Q7L8L6), the NP40-soluble protein abundance is 0.966 ± 0.027.

UniProt Q63HQ0: the NP40-soluble protein abundance is 1.03 ± 0.038.

On to UniProt Q6P1N0 and related entries, for which the NP40-soluble protein abundance amounted to 1.01 ± 0.023.

Turning to UniProt Q6NUQ4 and related entries, the NP40-soluble protein abundance stood at 1.1 ± 0.079.

As for UniProt Q6R327 and related entries, the NP40-soluble protein abundance stood at 0.979 ± 0.023.

SND1 (UniProt Q7KZF4): the NP40-soluble protein abundance was 1.03 ± 0.034.

As to OGFOD2 (UniProt Q6N063), the NP40-soluble protein abundance amounted to 0.999 ± 0.023.
